Results taken from patent US12202868B1 (KING SAUD UNIVERSITY, priority 2024, dated 2025).

Assay: peptide made by a vendor (Fmoc solid-phase peptide synthesis)
Details: whole synthesis, RP-HPLC, HCl salt

With “^1LPSTGEKDTA^10VFRNGGFFRK^20SKEK^24-S5-^26GKE^28-S5-KRIV^33” the “final HPLC purity” value was over 95%.
